Laboratory results: PubChem BioAssay AID743454 (Peter MacCallum Cancer Centre, 2014)

- Aim: 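Genes whose loss kills vorinostat-resistant colon cancer cells under vorinostat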 (primary screen)
- System: human HCT116-VR colon cancer cells, selected for vorinostat resistance
- Reagent: siRNA pool against human genes, 40 nM siRNA pool
- Timing: vorinostat for 24 h, read-out about 72 h after transfection
- Conditions: vorinostat at 2.5 µM final
- Measurement: 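Two measures, CellTiter-Fluor viability and luminescent caspase 3/7 activity, each as fold change against same-plate mock wells, mean of duplicates, then screen-wide robust z-score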
- Direction: viability robust z-score: higher = more viable cells than screen typical; caspase robust z-score: higher = more caspase 3/7 activity than screen typical
- Active means: 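Hits are knock-downs in viability class RV1/RV2 or caspase class CA1/CA2, excluding ones that killed cells in the no-drug cell-count arm; hits then retested with single siRNAs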
The deposit covers about 18,000 reagents; this is a part drawn at random. Over the whole deposit, 450 (2.5%) are marked active. 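Single biological run; no consistent viability z cut-off exists, so the class columns, not z-scores, define the calls.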

{"target gene":"ALKBH6","PubChem SID":"SID135622866","viability hit class":"no change","caspase hit class":"no change","viability robust z-score":-1.48,"caspase robust z-score":3.57,"outcome":"inactive"}
{"target gene":"ATRX","PubChem SID":"SID152156576","viability hit class":"no change","caspase hit class":"no change","viability robust z-score":1.73,"caspase robust z-score":-0.55,"outcome":"inactive"}
{"target gene":"DNPH1","PubChem SID":"SID135622282","viability hit class":"no change","caspase hit class":"no change","viability robust z-score":1.34,"caspase robust z-score":-0.7,"outcome":"inactive"}
{"target gene":"LYVE1","PubChem SID":"SID152149724","viability hit class":"no change","caspase hit class":"no change","viability robust z-score":-0.15,"caspase robust z-score":1.31,"outcome":"inactive"}
{"target gene":"TSPAN6","PubChem SID":"SID152153139","viability hit class":"no change","caspase hit class":"no change","viability robust z-score":1.69,"caspase robust z-score":-0.02,"outcome":"inactive"}
{"target gene":"INSM2","PubChem SID":"SID152149675","viability hit class":"no change","caspase hit class":"no change","viability robust z-score":0.64,"caspase robust z-score":3.79,"outcome":"inactive"}
{"target gene":"STK17B","PubChem SID":"SID56478762","viability hit class":"no change","caspase hit class":"no change","viability robust z-score":-1.14,"caspase robust z-score":0.25,"outcome":"inactive"}
{"target gene":"MST1","PubChem SID":"SID134313787","viability hit class":"no change","caspase hit class":"no change","viability robust z-score":0.03,"caspase robust z-score":2.28,"outcome":"inactive"}
{"target gene":"DEFB107A","PubChem SID":"SID135625239","viability hit class":"no change","caspase hit class":"no change","viability robust z-score":0.16,"caspase robust z-score":-0.18,"outcome":"inactive"}

4 successive records already listed, for reference:
{"target gene":"TSPAN6","PubChem SID":"SID152153139","viability hit class":"no change","caspase hit class":"no change","viability robust z-score":1.69,"caspase robust z-score":-0.02,"outcome":"inactive"}
{"target gene":"INSM2","PubChem SID":"SID152149675","viability hit class":"no change","caspase hit class":"no change","viability robust z-score":0.64,"caspase robust z-score":3.79,"outcome":"inactive"}
{"target gene":"STK17B","PubChem SID":"SID56478762","viability hit class":"no change","caspase hit class":"no change","viability robust z-score":-1.14,"caspase robust z-score":0.25,"outcome":"inactive"}
{"target gene":"MST1","PubChem SID":"SID134313787","viability hit class":"no change","caspase hit class":"no change","viability robust z-score":0.03,"caspase robust z-score":2.28,"outcome":"inactive"}

More entries follow:
{"target gene":"CHST5","PubChem SID":"SID135622406","viability hit class":"no change","caspase hit class":"no change","viability robust z-score":-0.22,"caspase robust z-score":-0.52,"outcome":"inactive"}
{"target gene":"DZIP1L","PubChem SID":"SID134322347","viability hit class":"no change","caspase hit class":"no change","viability robust z-score":1.06,"caspase robust z-score":-0.9,"outcome":"inactive"}
{"target gene":"DERL1","PubChem SID":"SID135621999","viability hit class":"no change","caspase hit class":"no change","viability robust z-score":0.07,"caspase robust z-score":1.81,"outcome":"inactive"}
{"target gene":"RUNX2","PubChem SID":"SID152153203","viability hit class":"RV2 (reduced viability)","caspase hit class":"no change","viability robust z-score":-3.66,"caspase robust z-score":2.54,"outcome":"active"}
{"target gene":"CSK","PubChem SID":"SID56478490","viability hit class":"no change","caspase hit class":"no change","viability robust z-score":-0.48,"caspase robust z-score":-0.11,"outcome":"inactive"}
{"target gene":"H1-3","PubChem SID":"SID134316344","viability hit class":"no change","caspase hit class":"no change","viability robust z-score":-0.38,"caspase robust z-score":-0.75,"outcome":"inactive"}
{"target gene":"NEFM","PubChem SID":"SID135623885","viability hit class":"no change","caspase hit class":"no change","viability robust z-score":0.08,"caspase robust z-score":-0.68,"outcome":"inactive"}
{"target gene":"CACNG3","PubChem SID":"SID152152021","viability hit class":"no change","caspase hit class":"no change","viability robust z-score":-0.29,"caspase robust z-score":4.59,"outcome":"inactive"}
{"target gene":"ZFYVE27","PubChem SID":"SID152148309","viability hit class":"no change","caspase hit class":"no change","viability robust z-score":-1.29,"caspase robust z-score":-0.39,"outcome":"inactive"}
{"target gene":"LAT","PubChem SID":"SID152156382","viability hit class":"no change","caspase hit class":"no change","viability robust z-score":-0.69,"caspase robust z-score":3.79,"outcome":"inactive"}
{"target gene":"PIGQ","PubChem SID":"SID134316222","viability hit class":"no change","caspase hit class":"no change","viability robust z-score":-0.2,"caspase robust z-score":1.25,"outcome":"inactive"}
{"target gene":"FAM3B","PubChem SID":"SID134319505","viability hit class":"no change","caspase hit class":"no change","viability robust z-score":0.32,"caspase robust z-score":-0.16,"outcome":"inactive"}
{"target gene":"SYT15","PubChem SID":"SID134317735","viability hit class":"no change","caspase hit class":"no change","viability robust z-score":-1.01,"caspase robust z-score":1.02,"outcome":"inactive"}
{"target gene":"MAIP1","PubChem SID":"SID134318516","viability hit class":"no change","caspase hit class":"no change","viability robust z-score":-0.09,"caspase robust z-score":0.9,"outcome":"inactive"}
{"target gene":"NOPCHAP1","PubChem SID":"SID152151422","viability hit class":"no change","caspase hit class":"no change","viability robust z-score":-0.06,"caspase robust z-score":0.19,"outcome":"inactive"}
{"target gene":"LEMD3","PubChem SID":"SID152154937","viability hit class":"no change","caspase hit class":"no change","viability robust z-score":0.01,"caspase robust z-score":-0.83,"outcome":"inactive"}
{"target gene":"TIFA","PubChem SID":"SID134319198","viability hit class":"no change","caspase hit class":"no change","viability robust z-score":0.62,"caspase robust z-score":-0.13,"outcome":"inactive"}
{"target gene":"DDX51","PubChem SID":"SID152151408","viability hit class":"no change","caspase hit class":"no change","viability robust z-score":-0.44,"caspase robust z-score":-0.25,"outcome":"inactive"}
